Data as given in EP4831172A1, “A CLASS OF POLYCYCLIC COMPOUNDS AND USES THEREOF” (dated 2026).
The structures given here were assigned with low confidence; some may be wrong.

Amino acid sequences for entries named in this document (tags omitted). Residues count along the entry.
UniProt P43220, 24-463 limits assumed: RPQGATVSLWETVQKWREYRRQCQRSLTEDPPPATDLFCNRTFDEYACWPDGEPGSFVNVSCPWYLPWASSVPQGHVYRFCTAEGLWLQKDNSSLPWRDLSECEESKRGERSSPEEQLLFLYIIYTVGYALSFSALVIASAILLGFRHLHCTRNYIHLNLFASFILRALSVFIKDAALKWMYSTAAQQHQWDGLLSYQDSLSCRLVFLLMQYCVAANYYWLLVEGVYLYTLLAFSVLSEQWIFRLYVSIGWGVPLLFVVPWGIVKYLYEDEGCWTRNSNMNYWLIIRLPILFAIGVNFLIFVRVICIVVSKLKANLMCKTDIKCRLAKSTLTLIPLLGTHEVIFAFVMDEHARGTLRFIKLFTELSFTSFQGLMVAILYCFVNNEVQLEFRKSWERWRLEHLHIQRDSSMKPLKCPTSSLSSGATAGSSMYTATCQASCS

Tests used:
GLP-1R = GLP-1R (Homo sapiens, UniProt P43220); assay: GLP1R-cAmp-Luc cell luciferase reporter assay of agonistic activity (titled in vitro enzymatic assay); details: read-out: Agonistic activity (EC50: nM); GLP1R-cAmp-Luc cells, 4 h incubation
[1] = In vivo pharmacokinetic study in mice; details: ICR mice, detection results at 24 h

Cc1cc(-n2nc3c(c2-n2cnn(-c4ccc5c(cnn5C)c4F)c2=O)[C@H](C)N(C(=O)c2cc4cc([C@H]5CCOC(C)(C)C5)ccc4n2[C@@]2(c4noc(=O)[nH]4)C[C@@H]2C)CC3)cc(C)c1F
EC50 (GLP-1R): < 10 nM

C[C@H]1c2c(nn(-c3ccc(F)c(C4CC4)c3)c2-n2ccn(-c3ccc4c(cnn4C)c3F)c2=O)CCN1C(=O)c1cc2cc([C@H]3CCOC(C)(C)C3)ccc2n1[C@@]1(c2noc(=O)[nH]2)C[C@@H]1C
AUCinf ([1]; iv (2 mg/kg)): 7.077 µg·h/mL | AUCinf ([1]; po (10 mg/kg)): 42.906 µg·h/mL | Cmax ([1]; po (10 mg/kg)): 5.103 µg/mL | Tmax ([1]; po (10 mg/kg)): 1.00 h | EC50 (GLP-1R): < 10 nM

Cc1cc(-n2nc3c(c2-n2ccn(-c4cc5c6c(cnn6CCO5)c4F)c2=O)[C@H](C)N(C(=O)c2cc4cc([C@H]5CCOC(C)(C)C5)ccc4n2[C@@]2(c4noc(=O)[nH]4)C[C@@H]2C)CC3)cc(C)c1F
AUCinf ([1]; iv (2 mg/kg)): 7.207 µg·h/mL | AUCinf ([1]; po (10 mg/kg)): 43.702 µg·h/mL | Cmax ([1]; po (10 mg/kg)): 4.557 µg/mL | Tmax ([1]; po (10 mg/kg)): 1.67 h
